Data: the supplement of paper PMC6078165
± gives the standard deviation of the averaged measurements. Values are relative to the signal before dosing, not to a vehicle control; the signal also falls without drug.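 Labels refer to human fibroblasts, largely primary: uterine (C12385, HUF), lung (H6013), bone (Hs27A), adrenal (HADF), skin (WS1), plus mammary HMF and breast cancer-associated Hs343T. Cancer lines are basal-like or mesenchymal-like triple-negative breast cancer. The paper counts as hits responses shifting over 3x the replicate standard deviation. The tissue of the other fibroblasts is not given here.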

System: MDAMB231
Assay: relative JC-1 red fluorescence (viability) vs pre-drug, coculture with fibroblast (fraction); higher = more viable cancer cells
Procedure: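 JC-1 labelled TNBC cells cocultured 1:1 (1,500 cells each) with CellTrace Violet stained primary or stromal fibroblasts in 384-well plates in FluoroBrite medium, treated with one of 42 anticancer drugs at 0.1, 1, 10 or 100 uM. JC-1 red fluorescence (mitochondrial integrity in cancer cells only) was read by plate reader every 8 h for 72 h. Values are normalised to each well's pre-drug value. The stock of one drug was tenfold lower, so its dose labels may be too high.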

O=C(O)CCCc1ccc(N(CCCl)CCCl)cc1 [Chlorambucil]
relative JC-1 red fluorescence
Settings	8 h	16 h	24 h	32 h	40 h	48 h	56 h	64 h	72 h
10 µM, coculture fibroblast: C12385	0.742 ± 0.0023	0.716 ± 0.0095	0.616 ± 0.032	0.59 ± 0.016	0.53 ± 0.018	0.494 ± 0.018	0.447 ± 0.022	0.436 ± 0.016	0.41 ± 0.013
10 µM, coculture fibroblast: H6013	0.8888 ± 0.0071	0.832 ± 0.026	0.786 ± 0.039	0.75 ± 0.033	0.702 ± 0.048	0.676 ± 0.048	0.672 ± 0.044	0.646 ± 0.045	0.602 ± 0.047
10 µM, coculture fibroblast: H6019	0.796 ± 0.03	0.727 ± 0.045	0.687 ± 0.054	0.639 ± 0.054	0.581 ± 0.075	0.561 ± 0.074	0.519 ± 0.078	0.506 ± 0.086	0.476 ± 0.082
10 µM, coculture fibroblast: H6076	0.853 ± 0.057	0.761 ± 0.033	0.701 ± 0.022	0.6688 ± 0.0039	0.627 ± 0.02	0.591 ± 0.032	0.57 ± 0.041	0.559 ± 0.064	0.55 ± 0.081
10 µM, coculture fibroblast: H6231	0.926 ± 0.02	0.84 ± 0.037	0.772 ± 0.04	0.723 ± 0.042	0.671 ± 0.045	0.63 ± 0.06	0.587 ± 0.067	0.561 ± 0.071	0.537 ± 0.074
10 µM, coculture fibroblast: HADF	0.8719 ± 0.0018	0.846 ± 0.018	0.814 ± 0.035	0.787 ± 0.049	0.738 ± 0.074	0.699 ± 0.059	0.677 ± 0.059	0.653 ± 0.075	0.612 ± 0.084
10 µM, coculture fibroblast: HCFa	0.9179 ± 0.0051	0.854 ± 0.028	0.814 ± 0.039	0.779 ± 0.06	0.727 ± 0.08	0.679 ± 0.1	0.655 ± 0.12	0.624 ± 0.13	0.579 ± 0.14
10 µM, coculture fibroblast: HCPF	0.831 ± 0.028	0.739 ± 0.017	0.676 ± 0.01	0.649 ± 0.016	0.589 ± 0.0074	0.544 ± 0.006	0.503 ± 0.01	0.475 ± 0.0094	0.4585 ± 0.0041
10 µM, coculture fibroblast: HHSteC	0.887 ± 0.01	0.8467 ± 0.0025	0.7953 ± 0.0019	0.752 ± 0.012	0.704 ± 0.008	0.66602 ± 0.00013	0.6302 ± 0.0052	0.601 ± 0.011	0.56 ± 0.013
10 µM, coculture fibroblast: HMF	0.877 ± 0.026	0.803 ± 0.0086	0.737 ± 0.018	0.703 ± 0.026	0.656 ± 0.036	0.623 ± 0.053	0.577 ± 0.056	0.555 ± 0.068	0.535 ± 0.083
10 µM, coculture fibroblast: HPFa	0.9187 ± 0.0055	0.901 ± 0.025	0.854 ± 0.03	0.795 ± 0.044	0.779 ± 0.05	0.726 ± 0.068	0.669 ± 0.083	0.63 ± 0.083	0.569 ± 0.076
10 µM, coculture fibroblast: HUF	0.857 ± 0.026	0.738 ± 0.011	0.755 ± 0.023	0.638 ± 0.013	0.572 ± 0.014	0.554 ± 0.01	0.5 ± 0.0084	0.5025 ± 0.0014	0.488 ± 0.0082
10 µM, coculture fibroblast: Hs5	0.867 ± 0.005	0.798 ± 0.0016	0.7511 ± 0.0017	0.7089 ± 0.0057	0.666 ± 0.0027	0.609 ± 0.011	0.5793 ± 0.0053	0.556 ± 0.0089	0.532 ± 0.007
10 µM, coculture fibroblast: Hs27A	0.897 ± 0.0081	0.846 ± 0.012	0.7966 ± 0.0066	0.7673 ± 0.0028	0.71449 ± 0.00065	0.6493 ± 0.0028	0.639 ± 0.0077	0.6155 ± 0.0045	0.564 ± 0.01
10 µM, coculture fibroblast: Hs343T	0.866 ± 0.0095	0.76 ± 0.0099	0.687 ± 0.0027	0.6362 ± 0.0011	0.577 ± 0.01	0.523 ± 0.0095	0.456 ± 0.022	0.421 ± 0.021	0.387 ± 0.014
10 µM, coculture fibroblast: WS1	0.748 ± 0.033	0.685 ± 0.017	0.603 ± 0.064	0.56 ± 0.036	0.499 ± 0.031	0.457 ± 0.035	0.405 ± 0.038	0.378 ± 0.042	0.354 ± 0.052
100 µM, coculture fibroblast: C12385	0.842 ± 0.015	0.911 ± 0.091	0.76 ± 0.051	0.814 ± 0.083	0.764 ± 0.11	0.726 ± 0.095	0.678 ± 0.091	0.658 ± 0.064	0.632 ± 0.057
100 µM, coculture fibroblast: H6013	0.918 ± 0.02	0.85 ± 0.031	0.815 ± 0.018	0.798 ± 0.011	0.758 ± 0.022	0.736 ± 0.037	0.71 ± 0.031	0.69 ± 0.035	0.657 ± 0.046
100 µM, coculture fibroblast: H6019	0.744 ± 0.0094	0.653 ± 0.0082	0.586 ± 0.04	0.541 ± 0.025	0.47 ± 0.036	0.438 ± 0.046	0.389 ± 0.049	0.364 ± 0.045	0.322 ± 0.04
100 µM, coculture fibroblast: H6076	0.902 ± 0.017	0.815 ± 0.033	0.741 ± 0.076	0.719 ± 0.077	0.667 ± 0.073	0.627 ± 0.071	0.587 ± 0.077	0.573 ± 0.088	0.554 ± 0.093
100 µM, coculture fibroblast: H6231	0.915 ± 0.054	0.833 ± 0.081	0.76 ± 0.075	0.723 ± 0.078	0.674 ± 0.086	0.641 ± 0.085	0.589 ± 0.089	0.562 ± 0.085	0.534 ± 0.082
100 µM, coculture fibroblast: HADF	0.888 ± 0.015	0.831 ± 0.01	0.786 ± 0.014	0.762 ± 0.01	0.706 ± 0.034	0.651 ± 0.032	0.633 ± 0.04	0.598 ± 0.036	0.556 ± 0.031
100 µM, coculture fibroblast: HCFa	0.9009 ± 0.0016	0.826 ± 0.0097	0.7803 ± 0.0048	0.751 ± 0.0099	0.685 ± 0.033	0.638 ± 0.05	0.608 ± 0.059	0.571 ± 0.076	0.517 ± 0.082
100 µM, coculture fibroblast: HCPF	0.849 ± 0.086	0.895 ± 0.093	0.789 ± 0.078	0.744 ± 0.068	0.69 ± 0.078	0.646 ± 0.08	0.604 ± 0.084	0.57 ± 0.089	0.538 ± 0.092
100 µM, coculture fibroblast: HHSteC	0.924 ± 0.0041	0.867 ± 0.0047	0.8285 ± 0.0042	0.7851 ± 0.0056	0.7404 ± 0.0041	0.693 ± 0.011	0.639 ± 0.0086	0.592 ± 0.011	0.549 ± 0.0059
100 µM, coculture fibroblast: HMF	0.881 ± 0.011	0.79229 ± 0.00032	0.713 ± 0.0088	0.685 ± 0.016	0.628 ± 0.026	0.599 ± 0.024	0.549 ± 0.032	0.525 ± 0.033	0.496 ± 0.034
100 µM, coculture fibroblast: HPFa	0.954 ± 0.015	0.9058 ± 0.007	0.842 ± 0.0086	0.787 ± 0.0085	0.737 ± 0.012	0.686 ± 0.027	0.618 ± 0.029	0.578 ± 0.023	0.517 ± 0.026
100 µM, coculture fibroblast: HUF	0.837 ± 0.0087	0.7508 ± 0.0022	0.685 ± 0.0076	0.594 ± 0.0065	0.518 ± 0.0093	0.485 ± 0.0095	0.436 ± 0.0083	0.4086 ± 0.0032	0.385 ± 0.0051
100 µM, coculture fibroblast: Hs5	0.888 ± 0.019	0.81 ± 0.01	0.738 ± 0.038	0.685 ± 0.043	0.635 ± 0.052	0.577 ± 0.051	0.542 ± 0.046	0.518 ± 0.052	0.5 ± 0.055
100 µM, coculture fibroblast: Hs27A	0.8888 ± 0.0073	0.83028 ± 0.0007	0.784 ± 0.0092	0.752 ± 0.024	0.697 ± 0.041	0.635 ± 0.046	0.637 ± 0.048	0.615 ± 0.047	0.574 ± 0.053
100 µM, coculture fibroblast: Hs343T	0.843 ± 0.038	0.743 ± 0.04	0.675 ± 0.046	0.627 ± 0.05	0.574 ± 0.048	0.522 ± 0.044	0.468 ± 0.052	0.44 ± 0.049	0.412 ± 0.056
100 µM, coculture fibroblast: WS1	0.7653 ± 0.0042	0.71 ± 0.023	0.632 ± 0.014	0.592 ± 0.05	0.547 ± 0.058	0.517 ± 0.068	0.47 ± 0.085	0.446 ± 0.075	0.419 ± 0.07
